Test results from US6602687B1, “DNA encoding human ciliary neurotrophic factor and method for producing the protein encoded thereby” (Regeneron Pharmaceuticals, Inc., priority 1989, dated 2003).
Some results were stated once for a whole list of compounds, not compound by compound.

Assay: Limulus Amebocyte Lysate test (pyrogenicity)
Conditions: purified recombinant protein from E. coli

Row | Molecule | pyrogenicity [ng/mg protein]
1 | recombinant rat CNTF: rat ciliary neurotrophic factor expressed in E. coli (protein, UniProt P20294 1-200, looked up) Ciliary neurotrophic factor: MAFAEQTPLTLHRRDLCSRSIWLARKIRSDLTALMESYVKHQGLNKNINLDSVDGVPVASTDRWSEMTEAERLQENLQAYRTFQGMLTKLLEDQRVHFTPTEGDFHQAIHTLMLQVSAFAYQLEELMVLLEQKIPENEADGMPATVGDGGLFEKKLWGLKVLQELSQWTVRSIHDLRVISSHQMGISALESHYGAKDKQM | < 5
2 | recombinant human CNTF: human ciliary neurotrophic factor expressed in E. coli (protein, UniProt P26441 1-200, looked up) Ciliary neurotrophic factor: MAFTEHSPLTPHRRDLCSRSIWLARKIRSDLTALTESYVKHQGLNKNINLDSADGMPVASTDQWSELTEAERLQENLQAYRTFHVLLARLLEDQQVHFTPTEGDFHQAIHTLLLQVAAFAYQIEELMILLEYKIPRNEADGMPINVGDGGLFEKKLWGLKVLQELSQWTVRSIHDLRFISSHQTGIPARGSHYIANNKKM | < 5
